Data reported in publication doi:10.1101/2023.02.23.529715.
No constants are given. Whether binding was seen depends on the method and setting.

Target: T1, HilC (Salmonella enterica) (UniProt B8Y8F2)
T1 sequence: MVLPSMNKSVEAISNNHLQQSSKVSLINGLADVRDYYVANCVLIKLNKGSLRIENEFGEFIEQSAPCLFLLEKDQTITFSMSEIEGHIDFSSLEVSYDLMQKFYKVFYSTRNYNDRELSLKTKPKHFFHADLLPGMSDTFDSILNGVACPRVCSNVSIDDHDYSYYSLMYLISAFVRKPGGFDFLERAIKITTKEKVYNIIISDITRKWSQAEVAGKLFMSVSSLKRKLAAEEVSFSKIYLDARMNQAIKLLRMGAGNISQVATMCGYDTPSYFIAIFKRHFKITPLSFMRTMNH
Assay: SEC-MALS

HilE (Salmonella enterica)
binding: no binding (tested: 50 μM)
